Measurements as given in the supplement of paper PMC12067093, “Discovery and optimisation of a covalent ligand for TRIM25 and its application to targeted protein ubiquitination” (Chemical Science, 2025).
The other results are listed elsewhere or left out.

The chains behind the UniProt entries cited, without tags or fusion partners. Where a name states a change or a piece, a line headed by the entry shows the natural chain unless it says otherwise.
UniProt Q969Y2: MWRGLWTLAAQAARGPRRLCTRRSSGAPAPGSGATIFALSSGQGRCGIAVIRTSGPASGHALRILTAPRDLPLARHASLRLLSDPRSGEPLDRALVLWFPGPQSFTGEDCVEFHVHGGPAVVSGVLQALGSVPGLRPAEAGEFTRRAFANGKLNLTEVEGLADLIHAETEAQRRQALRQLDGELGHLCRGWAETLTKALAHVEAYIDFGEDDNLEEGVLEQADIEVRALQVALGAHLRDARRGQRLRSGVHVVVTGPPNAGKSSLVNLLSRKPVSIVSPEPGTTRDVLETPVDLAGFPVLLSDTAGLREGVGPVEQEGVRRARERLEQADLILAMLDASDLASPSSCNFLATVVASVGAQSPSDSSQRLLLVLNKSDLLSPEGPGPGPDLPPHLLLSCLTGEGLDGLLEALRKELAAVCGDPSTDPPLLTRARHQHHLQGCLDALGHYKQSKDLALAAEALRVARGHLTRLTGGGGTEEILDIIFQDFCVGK
UniProt P13984, whole entry: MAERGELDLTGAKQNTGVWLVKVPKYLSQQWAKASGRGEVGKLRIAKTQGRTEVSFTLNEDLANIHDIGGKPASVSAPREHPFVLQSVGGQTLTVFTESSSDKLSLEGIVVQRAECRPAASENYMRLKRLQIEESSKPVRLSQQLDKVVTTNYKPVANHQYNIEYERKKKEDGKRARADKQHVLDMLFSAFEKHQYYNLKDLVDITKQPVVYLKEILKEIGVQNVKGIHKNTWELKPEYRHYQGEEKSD
UniProt Q9Y5Q9: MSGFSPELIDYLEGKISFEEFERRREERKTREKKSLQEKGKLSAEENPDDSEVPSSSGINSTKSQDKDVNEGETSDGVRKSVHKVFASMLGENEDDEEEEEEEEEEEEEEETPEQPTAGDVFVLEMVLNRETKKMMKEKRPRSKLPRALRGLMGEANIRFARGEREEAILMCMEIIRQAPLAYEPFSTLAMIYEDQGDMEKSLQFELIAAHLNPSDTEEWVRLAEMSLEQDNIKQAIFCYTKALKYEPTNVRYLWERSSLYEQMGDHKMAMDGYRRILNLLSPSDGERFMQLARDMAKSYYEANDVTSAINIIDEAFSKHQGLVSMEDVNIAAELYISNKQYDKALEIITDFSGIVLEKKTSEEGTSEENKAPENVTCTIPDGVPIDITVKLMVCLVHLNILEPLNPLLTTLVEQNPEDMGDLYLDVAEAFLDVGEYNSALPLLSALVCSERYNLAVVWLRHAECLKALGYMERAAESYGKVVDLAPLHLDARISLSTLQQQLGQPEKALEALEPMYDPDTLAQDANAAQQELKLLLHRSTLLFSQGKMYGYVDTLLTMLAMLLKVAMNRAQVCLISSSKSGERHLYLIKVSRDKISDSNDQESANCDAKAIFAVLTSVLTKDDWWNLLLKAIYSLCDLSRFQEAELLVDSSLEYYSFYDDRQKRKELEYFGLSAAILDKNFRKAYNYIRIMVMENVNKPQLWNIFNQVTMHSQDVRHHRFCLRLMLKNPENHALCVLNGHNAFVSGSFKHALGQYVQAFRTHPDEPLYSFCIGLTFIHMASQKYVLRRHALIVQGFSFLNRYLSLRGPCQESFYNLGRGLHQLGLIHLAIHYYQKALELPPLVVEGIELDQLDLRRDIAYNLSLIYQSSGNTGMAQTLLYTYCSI
UniProt P57764: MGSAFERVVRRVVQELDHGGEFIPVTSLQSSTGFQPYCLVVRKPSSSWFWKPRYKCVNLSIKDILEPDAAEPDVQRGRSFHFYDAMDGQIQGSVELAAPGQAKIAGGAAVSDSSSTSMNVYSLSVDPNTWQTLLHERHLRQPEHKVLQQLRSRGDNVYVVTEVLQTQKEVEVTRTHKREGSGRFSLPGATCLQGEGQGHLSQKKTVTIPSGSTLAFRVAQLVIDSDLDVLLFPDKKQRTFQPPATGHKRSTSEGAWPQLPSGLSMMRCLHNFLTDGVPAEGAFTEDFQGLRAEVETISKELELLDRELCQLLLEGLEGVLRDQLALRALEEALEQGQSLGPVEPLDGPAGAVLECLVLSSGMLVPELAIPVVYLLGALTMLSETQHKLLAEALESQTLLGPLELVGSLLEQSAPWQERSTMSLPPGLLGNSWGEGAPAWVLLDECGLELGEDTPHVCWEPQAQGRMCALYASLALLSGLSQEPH
UniProt Q12789: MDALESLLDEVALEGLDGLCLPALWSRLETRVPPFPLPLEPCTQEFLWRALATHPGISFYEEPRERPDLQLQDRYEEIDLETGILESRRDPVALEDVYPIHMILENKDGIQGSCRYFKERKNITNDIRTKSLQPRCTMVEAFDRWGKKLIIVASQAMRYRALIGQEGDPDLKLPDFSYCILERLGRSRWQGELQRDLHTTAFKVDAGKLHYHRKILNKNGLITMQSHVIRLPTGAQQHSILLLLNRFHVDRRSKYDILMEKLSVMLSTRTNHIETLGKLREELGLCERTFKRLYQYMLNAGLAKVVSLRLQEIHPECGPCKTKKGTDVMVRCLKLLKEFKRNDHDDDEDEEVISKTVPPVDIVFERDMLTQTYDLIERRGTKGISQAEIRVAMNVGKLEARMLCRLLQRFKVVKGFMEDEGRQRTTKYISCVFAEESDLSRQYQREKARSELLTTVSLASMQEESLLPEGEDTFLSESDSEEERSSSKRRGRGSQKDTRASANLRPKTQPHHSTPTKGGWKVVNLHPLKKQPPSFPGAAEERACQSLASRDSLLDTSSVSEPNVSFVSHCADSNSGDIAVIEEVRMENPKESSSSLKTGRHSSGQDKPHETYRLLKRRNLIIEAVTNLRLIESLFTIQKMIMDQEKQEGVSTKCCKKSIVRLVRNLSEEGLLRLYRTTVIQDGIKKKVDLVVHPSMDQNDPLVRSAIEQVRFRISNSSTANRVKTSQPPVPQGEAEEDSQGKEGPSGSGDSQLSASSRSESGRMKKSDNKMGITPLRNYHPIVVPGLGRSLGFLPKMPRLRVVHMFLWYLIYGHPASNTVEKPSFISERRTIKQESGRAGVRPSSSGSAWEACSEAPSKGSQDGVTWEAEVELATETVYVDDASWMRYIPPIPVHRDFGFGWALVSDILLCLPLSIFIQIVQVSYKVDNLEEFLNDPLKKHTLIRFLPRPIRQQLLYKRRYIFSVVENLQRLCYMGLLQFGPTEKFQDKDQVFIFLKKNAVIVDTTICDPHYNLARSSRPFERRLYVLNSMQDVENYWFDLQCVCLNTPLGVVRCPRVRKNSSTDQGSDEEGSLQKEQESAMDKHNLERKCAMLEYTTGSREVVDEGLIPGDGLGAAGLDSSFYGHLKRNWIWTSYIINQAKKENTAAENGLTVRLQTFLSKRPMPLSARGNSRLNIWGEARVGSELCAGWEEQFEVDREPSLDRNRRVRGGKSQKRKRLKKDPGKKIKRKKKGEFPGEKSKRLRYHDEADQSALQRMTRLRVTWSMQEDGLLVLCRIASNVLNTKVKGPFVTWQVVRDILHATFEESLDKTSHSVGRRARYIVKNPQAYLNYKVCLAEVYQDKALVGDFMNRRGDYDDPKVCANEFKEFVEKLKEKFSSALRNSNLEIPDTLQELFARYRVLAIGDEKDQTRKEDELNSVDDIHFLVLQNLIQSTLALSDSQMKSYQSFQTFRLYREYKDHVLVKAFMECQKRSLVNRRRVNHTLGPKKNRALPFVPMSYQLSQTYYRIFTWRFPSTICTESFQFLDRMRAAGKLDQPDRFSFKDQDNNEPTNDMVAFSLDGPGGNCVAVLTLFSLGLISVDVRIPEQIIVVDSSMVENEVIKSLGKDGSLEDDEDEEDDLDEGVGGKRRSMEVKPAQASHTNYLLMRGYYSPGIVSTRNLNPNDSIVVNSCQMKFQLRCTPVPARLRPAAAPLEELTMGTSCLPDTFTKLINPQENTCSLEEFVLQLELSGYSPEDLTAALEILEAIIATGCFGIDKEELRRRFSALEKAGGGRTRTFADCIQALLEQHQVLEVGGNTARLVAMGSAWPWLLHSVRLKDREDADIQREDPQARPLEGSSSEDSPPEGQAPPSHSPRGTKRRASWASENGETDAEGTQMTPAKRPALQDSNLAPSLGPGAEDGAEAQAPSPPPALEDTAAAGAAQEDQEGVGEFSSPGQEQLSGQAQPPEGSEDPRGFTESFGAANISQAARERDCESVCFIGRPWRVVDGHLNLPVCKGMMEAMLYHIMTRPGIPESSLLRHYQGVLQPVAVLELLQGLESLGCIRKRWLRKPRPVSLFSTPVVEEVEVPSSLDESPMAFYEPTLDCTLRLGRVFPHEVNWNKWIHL
UniProt P40939: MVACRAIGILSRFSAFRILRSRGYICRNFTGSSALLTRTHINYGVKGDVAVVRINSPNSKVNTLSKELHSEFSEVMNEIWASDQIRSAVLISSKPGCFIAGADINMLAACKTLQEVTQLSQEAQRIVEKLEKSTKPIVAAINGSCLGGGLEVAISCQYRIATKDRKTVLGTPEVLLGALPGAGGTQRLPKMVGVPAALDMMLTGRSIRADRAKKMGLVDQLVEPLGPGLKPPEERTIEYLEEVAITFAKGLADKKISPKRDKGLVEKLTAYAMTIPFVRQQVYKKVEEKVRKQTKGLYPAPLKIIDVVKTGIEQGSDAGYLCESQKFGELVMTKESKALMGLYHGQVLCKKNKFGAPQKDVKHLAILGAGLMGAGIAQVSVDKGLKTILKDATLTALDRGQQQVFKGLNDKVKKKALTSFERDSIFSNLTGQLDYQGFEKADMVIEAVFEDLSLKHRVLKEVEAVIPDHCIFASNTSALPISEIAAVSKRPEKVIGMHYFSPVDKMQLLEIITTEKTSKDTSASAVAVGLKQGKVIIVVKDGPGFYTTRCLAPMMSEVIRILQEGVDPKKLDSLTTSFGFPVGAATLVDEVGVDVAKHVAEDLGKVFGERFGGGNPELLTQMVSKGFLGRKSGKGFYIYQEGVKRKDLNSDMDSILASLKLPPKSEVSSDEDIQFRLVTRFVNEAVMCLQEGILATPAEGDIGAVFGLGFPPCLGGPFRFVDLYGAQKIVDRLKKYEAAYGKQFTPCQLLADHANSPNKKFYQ
UniProt P25098: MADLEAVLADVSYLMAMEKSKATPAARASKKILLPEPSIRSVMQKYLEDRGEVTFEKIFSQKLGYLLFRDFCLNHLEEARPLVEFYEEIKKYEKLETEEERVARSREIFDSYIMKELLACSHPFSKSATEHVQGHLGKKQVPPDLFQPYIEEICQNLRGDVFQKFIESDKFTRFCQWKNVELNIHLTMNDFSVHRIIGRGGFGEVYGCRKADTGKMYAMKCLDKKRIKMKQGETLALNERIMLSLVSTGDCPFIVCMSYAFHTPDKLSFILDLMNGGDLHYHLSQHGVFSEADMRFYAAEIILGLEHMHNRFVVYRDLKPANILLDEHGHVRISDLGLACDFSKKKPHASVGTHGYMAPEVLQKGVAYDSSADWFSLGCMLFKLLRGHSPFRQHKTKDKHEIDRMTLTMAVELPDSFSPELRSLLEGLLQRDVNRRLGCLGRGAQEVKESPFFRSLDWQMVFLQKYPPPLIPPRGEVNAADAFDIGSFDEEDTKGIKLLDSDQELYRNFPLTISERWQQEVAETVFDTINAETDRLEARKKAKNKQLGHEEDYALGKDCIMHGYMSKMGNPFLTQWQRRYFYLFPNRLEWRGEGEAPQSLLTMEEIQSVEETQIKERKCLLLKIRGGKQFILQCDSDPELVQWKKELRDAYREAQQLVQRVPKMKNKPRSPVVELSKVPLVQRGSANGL
UniProt Q9H6D7: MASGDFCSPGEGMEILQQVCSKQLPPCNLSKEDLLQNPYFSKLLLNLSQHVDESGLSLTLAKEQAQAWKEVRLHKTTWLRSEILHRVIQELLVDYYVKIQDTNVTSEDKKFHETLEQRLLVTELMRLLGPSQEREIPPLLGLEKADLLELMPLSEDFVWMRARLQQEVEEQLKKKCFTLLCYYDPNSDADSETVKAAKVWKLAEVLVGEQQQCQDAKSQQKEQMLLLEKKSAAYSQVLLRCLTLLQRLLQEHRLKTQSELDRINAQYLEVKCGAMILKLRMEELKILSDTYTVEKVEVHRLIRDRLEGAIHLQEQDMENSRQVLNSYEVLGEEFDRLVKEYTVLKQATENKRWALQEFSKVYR

Compound: CC1Cc2ccccc2N1C(=O)C1CCCN(C1)C(=O)CCl (mixture of isomers) [TRIM25 ligand 11 (diastereomer mixture)]
Assay: probe-labelled cysteine peptide fold change vs DMSO (competition) (log2 fold change); higher = less target engagement (more negative = stronger competition)
Conditions: THP-1, incubation time: 4 h
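Further: competitive chemoproteomic profiling in live THP-1 cells with an iodoacetamide desthiobiotin (IA-DTB) probe, comparing probe-labelled peptide intensities in compound-treated cells against DMSO-treated controls.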

Row | Target | probe-labelled cysteine peptide fold change (10 µM) | probe-labelled cysteine peptide fold change (50 µM)
1 | GTPBP3_Q969Y2_188_QLDGELGHLCR (UniProt Q969Y2) | 0.00128 | -0.000798
2 | GTF2F2_P13984_116_AECRPAASENYMR (UniProt P13984) | -0.0774 | -0.231
3 | GPSM1_Q86YR5_497_APSSDEECFFDLLTK (UniProt Q86YR5) | -0.105 | 0.0081
4 | H6PD_O95479_86_ALESLSCPK (UniProt O95479) | -0.13 | -0.00529
5 | GTF3C3_Q9Y5Q9_810_GPCQESFYNLGR (UniProt Q9Y5Q9) | 0.136 | 0.284
6 | GSDMD_P57764_268_CLHNFLTDGVPAEGAFTEDFQGLR (UniProt P57764) | 0.417 | 0.546
7 | GTF3C1_Q12789_853_AGVRPSSSGSAWEACSEAPSK (UniProt Q12789) | 0.0312 | -0.225
8 | GTF3C3_Q9Y5Q9_172_GEREEAILMCMEIIR (UniProt Q9Y5Q9) | -0.00985 | 0.106
9 | HADHA_P40939_97+110_PGCFIAGADINMLAACK (UniProt P40939) | -0.0879 | 0.186
10 | GRK2_P25098_72_DFCLNHLEEARPLVEFYEEIKK (UniProt P25098) | 0.0128 | 0.101
11 | GSDMD_P57764_467_MCALYASLALLSGLSQEPH (UniProt P57764) | 0.104 | 0.0802
12 | HAUS4_Q9H6D7_272_CGAMILK (UniProt Q9H6D7) | -0.00499 | 0.197
13 | GSN_P06396_215_ATEVPVSWESFNNGDCFILDLGNNIHQWCGSNSNR (UniProt P06396) | -0.26 | -0.0284
14 | GRK2_P25098_439_RLGCLGR (UniProt P25098) | -0.00476 | -0.0629
